For 63 molecules, AC50 results are on record in PubChem BioAssay AID493014 (National Center for Advancing Translational Sciences (NCATS), 2011).

The other results are listed elsewhere or left out. Shown are side measurements of this screen, not its main read-out; they come without a call. Compounds called inactive in the main read-out are mostly missing here. The note in brackets gives the kind of curve behind each potency; many fits are weak.

As usually defined, the AC50 is the concentration at which the activity in the assay is half-maximal.

A short description of the assay: qHTS Assay to Find Inhibitors of Chronic Active B-Cell Receptor Signaling. The settings on record: ABC-DLBCL IkBa-CBG/CBR reporter, luminescence ratio (green luciferase fused to IkBa over red control in TMD8 lymphoma cells), 4 h. A digest of the protocol:
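Doxycycline induced both beetle luciferases in TMD8 lymphoma cells; IKK-driven degradation limits the IkappaBalpha-fused green signal, while red luminescence normalises for cell number and nonspecific effects. Compounds tested up to 46 uM, 4 hrs.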
Background: In qHTS, concentration-response curves come from the screen itself.

[1] abbreviates: measured here: CBR red luminescence, cell number.
Setting [2] is: measured here: IkBa-CBG green luminescence.

Take `COC(=O)c1ccc(NC(=O)NC2CCCCC2)cc1`: under setting [1], the concentration at half-maximal activity (AC50) is 29.1 µM [falling, single point].

Turning to `Cc1nc(C(=O)N(C)C)nn1-c1cc(Cl)ccc1Cl`, under setting [1], the AC50 is 20.6 µM [rising, partial curve, poor fit].

On to `CCOc1ccccc1C(=O)Nc1nnc(COC)s1`, for which the AC50 reads like this: under setting [1], 35.5 µM [falling, single point]; under setting [2], 20.6 µM [falling, partial curve, poor fit].

For `COc1ccc2c(C(=O)CN(C)C3CCCCC3)c[nH]c2c1`, the AC50 under setting [1] was 2.91 µM [falling, partial curve].

Regarding `COc1c(OC(C)=O)ccc(/C=C/c2ccc3cccc(OC)c3n2)c1[N+](=O)[O-]`, the AC50 under setting [1] was 23.1 µM [falling, single point].

In the case of `O=C(CCN1C(=O)/C(=C/c2ccc(F)cc2)SC1=S)NC1C=CS(=O)(=O)C1` (stereo not given), the AC50 under setting [1] is 6.31 µM [falling, partial curve, poor fit].

As for `O=C(N/N=C/c1ccnc2ccccc12)c1ccccc1O`, under setting [1], the AC50 is 0.447 µM [falling, full curve].

In the case of `Cc1ccc(-c2ocnc2C(=O)Nc2nc(C)cs2)cc1`, the half-maximal activity concentration (AC50) under setting [1] is 15.8 µM [rising, single point].

Take `COc1ccc(OC)c(C(=O)COC(=O)c2[nH]c(C)c(C(C)=O)c2C)c1`: the AC50 by setting is: under setting [1], 2.06 µM [rising, partial curve, poor fit]; under setting [2], 13 µM [falling, partial curve].

As to `COC(=O)C1=C(C)NC2=C(C(=O)CCC2)C1c1cn(Cc2ccc(Cl)cc2Cl)nc1-c1ccccc1` (stereo not given), under setting [1], the AC50 was 20 µM [falling, single point].

`CC(=O)Nc1sc(C)c(C)c1C(=O)OCC(=O)Nc1cc(S(=O)(=O)N2CCCCC2)ccc1Cl`: the half-maximal activity concentration (AC50) under setting [2] was 23.1 µM [rising, partial curve, poor fit].

Consider `Cn1cccc1C(=O)NC(=O)COC(=O)CCNS(=O)(=O)c1ccc(Cl)cc1`, for which, under setting [1], the half-maximal activity concentration (AC50) is 0.103 µM [rising, full curve, poor fit].

As to `CCN(CC(=O)Nc1c(F)cccc1F)C(=O)c1ccc2c(c1)NC(=O)C(C)S2` (stereo not given), the AC50 under setting [1] was 9.2 µM [falling, partial curve, poor fit].

For the molecule `CCOC(=O)/C=c1\s/c(=C\c2ccc3c(c2)OCCO3)c(=O)n1CC(=O)NCC1CCCO1` (stereo not given), the AC50 under setting [1] is 35.5 µM [rising, single point].

Consider `CC(C)c1ccc(-c2nnn(CCC(=O)O)n2)cc1`, for which the concentration at half-maximal activity (AC50) under setting [1] was 2.82 µM [falling, full curve].

For the molecule `COc1ccc2[nH]c3c(c2c1)CCNC3(C)CCc1ccc(Cl)nc1` (stereo not given), the AC50 under setting [1] is 5.62 µM [rising, single point].

Consider `CCS(=O)(=O)N1CCN(c2cc3c(cc2[N+](=O)[O-])n(C)c(=O)n3C)CC1`, for which the half-maximal activity concentration (AC50) under setting [1] was 17.8 µM [rising, partial curve, poor fit].

Take `N#Cc1c(NC(=O)C(=O)NCCCN2CCOCC2)sc2c1CCC2`: under setting [1], the half-maximal activity concentration (AC50) is 6.31 µM [rising, single point].

As for `CC(=O)c1sc(NC(=O)C2COc3ccccc3O2)nc1C` (stereo not given), the half-maximal activity concentration (AC50) under setting [1] was 6.51 µM [falling, partial curve].

Take `CC1CCN(C(=O)COC(=O)COc2ccccc2C#N)CC1`: under setting [1], the AC50 is 6.51 µM [rising, single point].

`NCCCC[C@H]1CNC(=S)N1CC1CCCCC1`: the AC50 under setting [1] is 12.6 µM [rising, partial curve, poor fit].

In the case of `O=C(NNC(=O)c1ccncc1)Nc1ccc([N+](=O)[O-])cc1`, under setting [1], the AC50 was 8.91 µM [falling, partial curve].

Regarding `COc1cc(NC(=O)C/C(C)=N/NC(=O)c2cccs2)c(OC)cc1Cl`, the AC50 under setting [1] was 35.5 µM [falling, single point].

`CCCN(Cc1cc2cc(C)ccc2[nH]c1=O)S(C)(=O)=O`: the AC50 under setting [1] is 3.55 µM [rising, partial curve].

Take `C[C@]12c3[nH]c4cc(-c5ccco5)ccc4c3CCN1C(=O)[C@@H](CC(=O)NCCc1ccccn1)C[C@@H]2C(=O)N1CCCCC1`: the half-maximal activity concentration (AC50) under setting [2] was 14.6 µM [falling, partial curve, poor fit].

Take `S=C(NCc1ccccc1)N1CCn2cccc2C1c1cccnc1` (stereo not given): the AC50 under setting [1] is 3.55 µM [rising, full curve, poor fit].

`O=C(O)CC(Cc1ccccc1)c1ccc2c(c1)OCO2` (stereo not given): the AC50 under setting [1] was 5.62 µM [rising, single point].

Take `CCCCC(=O)Nc1cccc(C(=O)Nc2ccccc2C(=O)O)c1`: the half-maximal activity concentration (AC50) under setting [1] was 22.4 µM [falling, single point].

For the molecule `O=C(Nc1ccc([N+](=O)[O-])cc1)Nc1ccc(N2CCOCC2)c2nonc12`, the AC50 under setting [1] is 15.8 µM [rising, single point].

With `CCCCCCn1c(CN2CCN(Cc3ccccc3)CC2)nc2c1c(=O)n(C)c(=O)n2C`, the AC50 under setting [1] is 16.4 µM [falling, partial curve, poor fit].

As to `CCOC(=O)c1ccc(N2C(=O)C3C(/C=C/c4ccccc4)OC4(C(=O)c5ccccc5C4=O)C3C2=O)cc1` (stereo not given), the AC50 under setting [1] is 29.1 µM [rising, single point].

`O=C(CCCOc1ccccc1)Nc1ccc(Cl)c(S(=O)(=O)N2CCOCC2)c1`: the AC50 under setting [1] was 29.1 µM [falling, single point].

Regarding `COc1ccc(/C=C2/C(=O)OCc3cc(OC)c(OC)cc32)cc1`, the half-maximal activity concentration (AC50) under setting [2] was 5.17 µM [falling, partial curve, poor fit].

For `CCOc1cc(-c2c(C)c(C)nc(N)c2C#N)ccc1O`, under setting [1], the concentration at half-maximal activity (AC50) is 5.8 µM [falling, partial curve, poor fit].

Take `COc1cc(C(=O)NCC(=O)N2CCN(S(=O)(=O)c3cc(C)ccc3C)CC2)cc(OC)c1OC`: the AC50 under setting [2] was 11.2 µM [falling, partial curve, poor fit].

`CCOc1ccc2oc(-c3ccccc3)c(C(N)=O)c2c1`: the AC50 under setting [1] is 0.631 µM [rising, full curve, poor fit].

Take `O=C(CN(CC1CCCO1)C(=O)CCC(=O)Nc1ccccn1)NCC1CCCO1` (stereo not given): the half-maximal activity concentration (AC50) under setting [1] is 6.51 µM [falling, single point].

As for `Cc1nc2cc(-c3cccc(F)c3)nn2c(C)c1CCC(=O)NC(C)c1ccc2c(c1)OCCO2` (stereo not given), the AC50 under setting [1] was 23.1 µM [falling, single point].

Consider `COc1cccc(NC(=O)COC(=O)CC(NC(N)=O)c2ccc(Cl)cc2)c1` (stereo not given), for which, under setting [1], the concentration at half-maximal activity (AC50) is 15.8 µM [falling, single point].

Regarding `CCC/C=C(\CCC)C(NC(=O)Cc1ccccc1)c1ccc(C(=O)OC)cc1` (stereo not given), the half-maximal activity concentration (AC50) under setting [1] is 16.4 µM [falling, single point].

As to `Cc1c(Cl)cccc1-n1c(SCC(=O)NCc2cccs2)nnc1-c1ccncc1`, the half-maximal activity concentration (AC50) under setting [1] is 35.5 µM [falling, single point].

For `O=C(NCc1ccco1)c1c2c(nc3ccccc13)CCC2`, the AC50 under setting [1] was 10 µM [falling, partial curve, poor fit].

As for `Cc1ccc(Cl)cc1N1CCN(C(=O)CCCn2c(=O)c3cccn3c3cccnc32)CC1`, the AC50 under setting [1] is 35.5 µM [falling, single point].

As to `COc1ccc(C2Cc3ccccc3C(=O)O2)cc1` (stereo not given), under setting [1], the concentration at half-maximal activity (AC50) is 0.82 µM [rising, full curve, poor fit].

As to `O=C(CCN1C(=O)/C(=C\C=C\c2ccccc2)SC1=S)Nc1ccc(C(=O)O)cc1`, the AC50 under setting [1] is 1.12 µM [falling, full curve].

Turning to `COc1ccc([N+](=O)[O-])cc1NC(=O)CCC(=O)c1cccs1`, the AC50 under setting [1] was 31.6 µM [rising, single point].

As to `CCOc1cc(NC(=S)Nc2ccc(Cl)cc2)c(OCC)cc1NC(C)=O`, under setting [1], the AC50 was 8.91 µM [rising, partial curve, poor fit].

Take `COc1ccc(NC(=O)c2cc(S(=O)(=O)N3CCCCC3)c[nH]2)cc1`: the half-maximal activity concentration (AC50) under setting [1] is 0.112 µM [rising, full curve, poor fit].

With `O=C(N/N=C/c1cccc(F)c1)c1c(O)c2ccccc2[nH]c1=O`, under setting [1], the concentration at half-maximal activity (AC50) was 0.0291 µM [falling, full curve].

Take `Cc1ccc(-c2ccnc3c(Cl)c(C)nn23)cc1`: the AC50 under setting [1] was 10 µM [rising, partial curve, poor fit].

With `CCCCCCSc1nsc(NC(=O)CCC)n1`, the AC50 under setting [1] was 12.6 µM [rising, partial curve].

`COc1cccc(C2CC(=O)Nc3cc(OC)c(OC)c(OC)c32)c1OC` (stereo not given): under setting [1], the half-maximal activity concentration (AC50) is 10 µM [rising, partial curve, poor fit].

For the molecule `CC1CCCC(NC(=O)C2CCN(S(=O)(=O)N3CCCCC3)CC2)C1C` (stereo not given), under setting [1], the AC50 is 6.31 µM [rising, full curve, poor fit].

For the molecule `Cc1cccc(Nc2nnc(SCC(=O)NCc3cccs3)s2)c1`, the AC50 under setting [1] is 0.708 µM [falling, full curve, poor fit].

With `O=C(Nc1ccn(Cc2ccccc2)n1)c1cccc(F)c1`, the AC50 under setting [1] is 17.8 µM [falling, single point].

Take `COC(=O)c1ccccc1NC(=O)CSc1nnnn1C1CCCCC1`: the AC50 under setting [1] is 32.6 µM [falling, single point].

For the molecule `COc1ccc(-c2nn(-c3ccccc3)cc2/C=C(/C#N)C(N)=O)cc1[N+](=O)[O-]`, the AC50 under setting [1] was 2.91 µM [rising, full curve, poor fit].

Consider `COc1ccc2c(C)cc(SCC#N)nc2c1`, for which, under setting [1], the AC50 is 15.8 µM [falling, partial curve, poor fit].

Turning to `FCCCOc1ccc(/C=N/OCc2ccc(Cl)cc2Cl)cc1`, the concentration at half-maximal activity (AC50) under setting [1] was 35.5 µM [rising, single point].

In the case of `CN(C)S(=O)(=O)c1cccc(NC(=S)N/N=C/c2cc(Br)ccc2O)c1`, under setting [1], the AC50 is 12.6 µM [falling, partial curve, poor fit].

Consider `COc1ccccc1N1CCN(C(=O)c2cc(-c3ccc(F)cc3)[nH]c2C)CC1`, for which the AC50 under setting [1] was 11.2 µM [falling, partial curve].

Consider `CC(C)c1ccc(CN2CC(C(=O)O)CC2=O)cc1` (stereo not given), for which the concentration at half-maximal activity (AC50) under setting [1] is 8.2 µM [falling, partial curve, poor fit].

On to `COc1ccccc1-c1cc(C(=O)NCCN2CCOCC2)no1`, for which the AC50 under setting [1] is 10 µM [falling, partial curve, poor fit].
